# In PubChem BioAssay AID328 (DTP/NCI, 2004):
# The list is a part of this screen's results and no random one: it gathers tests that were run many times, whatever their T/C, doses with no T/C, and many T/C values between a quarter and a half above the control. Other doses and runs of a compound stand elsewhere. T/C is the treated group as % of the vehicle group. Some entries give survivors of the animals treated and no T/C: the source holds a T/C of zero for them, seemingly a mark for toxic or unscored doses. Some doses without a T/C left all or most animals alive at the check, yet need not have been tolerated: survival well below the control is almost never listed, so the zero probably covers shortened survival too. Counts of survivors are from the toxicity check (mostly the fifth day) where no day follows; animals may have died later. Schedules are NCI's codes, read here as Q, the interval in days (D) or hours (H), X, the number of doses. Some entries were tested several times; their values stand side by side, smallest first. For survival time, the PubChem record calls one and a half times the control and up active, and a quarter to a half above the control has no call in these data; cut-offs in other NCI protocols can differ. Some T/C values carry the count of animals alive at the toxicity check (mostly the fifth day); where none is given, no animal had died by that day. Signs of the kind (2×) count equal records among those shown.
# Test system: BDF1 mice, P388 leukemia ip, median survival T/C
# Experiment: NCI In Vivo Anticancer Drug Screen. Data for tumor model P388 Leukemia (intraperitoneal) in B6D2F1 (BDF1) mice
# Conditions: T/C endpoint: median survival time, higher T/C = longer survival
# In short: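 Compound-treated tumour-bearing mice were compared with vehicle-treated controls. Survival was recorded, and the value is the treated-group measurement divided by the control-group measurement (T/C).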
# [1] = dose: 50.0 mg/kg/injection, schedule: Q01DX009 (ip), vehicle: Klucel (hydroxypropylcellulose) (HPC)
# [2] = dose: 50.0 mg/kg/injection, schedule: Q04DX002 (ip), vehicle: Klucel (hydroxypropylcellulose) (HPC)
# [3] = dose: 50.0 mg/kg/injection, schedule: Q04DX003 (ip), vehicle: Klucel (hydroxypropylcellulose) (HPC)
# [4] = dose: 100.0 mg/kg/injection, schedule: Q04DX002 (ip), vehicle: Klucel (hydroxypropylcellulose) (HPC)
# [5] = dose: 100.0 mg/kg/injection, schedule: Q04DX003 (ip), vehicle: Klucel (hydroxypropylcellulose) (HPC)
# [6] = dose: 200.0 mg/kg/injection, schedule: Q01DX005 (ip), vehicle: Klucel (hydroxypropylcellulose) (HPC)
# [7] = dose: 200.0 mg/kg/injection, schedule: Q04DX003 (ip), vehicle: Klucel (hydroxypropylcellulose) (HPC)
# [8] = dose: 400.0 mg/kg/injection, schedule: Q04DX003 (ip), vehicle: Klucel (hydroxypropylcellulose) (HPC)
smiles,measurement,setting,value
Nc1n[nH]c(N)n1,T/C,"dose: 50.0 mg/kg/injection, schedule: Q01DX001 (ip), vehicle: Klucel (hydroxypropylcellulose) (HPC)","88, 93 [5 of 6 alive], 94 (2×), 95 (2×), 100 (3×), 100 [5 of 6 alive] (2×), 101 (3×), 102 (2×), 103, 104 (2×), 106, 107, 110 (2×), 111, 120 (2×), 121 % of control (2×)"
same,T/C,"dose: 50.0 mg/kg/injection, schedule: Q01DX005 (ip), vehicle: Klucel (hydroxypropylcellulose) (HPC)","88, 91, 93 (2×), 94, 96, 98, 99 (5×), 100 (2×), 103 (3×), 104, 106 (3×), 107, 108 (2×), 110 (3×), 111, 112, 114, 118, 119, 121, 122, 123 % of control"
same,T/C,[1],"87 (2×), 90 [5 of 6 alive], 91, 92, 94, 95, 97, 98, 99, 100, 100 [5 of 6 alive], 101 (5×), 102 (3×), 103, 104 (3×), 105, 106 (2×), 107, 109 (2×), 110, 111, 113, 114, 127 % of control"
same,survivor count,[1],5 of 6
same,T/C,[2],"88 (2×), 90, 91, 92 (2×), 94, 94 [5 of 6 alive], 95, 96, 97, 99 (3×), 100 (2×), 101, 102 (3×), 102 [5 of 6 alive], 103 (2×), 104 (2×), 105, 106 (2×), 113, 115 (2×), 116, 120 % of control"
same,survivor count,[2],6 of 6
same,T/C,[3],"91, 94 (2×), 95 (2×), 98 (2×), 99, 100 (2×), 101 (3×), 103 (3×), 105 (2×), 106 (2×), 109, 110 (3×), 111 (4×), 114 (2×), 115, 116, 129, 134 % of control"
same,survivor count,[3],3 of 3 and 6 of 6
same,T/C,"dose: 100.0 mg/kg/injection, schedule: Q01DX001 (ip), vehicle: Klucel (hydroxypropylcellulose) (HPC)","91 (2×), 96, 98, 99, 100 (2×), 101, 102 (2×), 103, 104 (3×), 105 (2×), 107 (3×), 108 (2×), 109, 110, 111, 115, 119, 126, 127 % of control"
same,T/C,"dose: 100.0 mg/kg/injection, schedule: Q01DX005 (ip), vehicle: Klucel (hydroxypropylcellulose) (HPC)","90, 91, 96, 100, 101 (2×), 102, 103 (2×), 104, 105, 106, 107 [2 of 3 alive], 108 (4×), 109 [5 of 6 alive], 110 (2×), 112 (2×), 114, 115, 116 (2×), 117, 119 (3×), 120 (2×), 125, 133, 134 % of control"
same,T/C,"dose: 100.0 mg/kg/injection, schedule: Q01DX009 (ip), vehicle: Klucel (hydroxypropylcellulose) (HPC)","93, 95 (2×), 96, 97, 98, 99, 100, 103 (2×), 104, 105 (3×), 106, 108 (2×), 110 (2×), 111 (2×), 113 (2×), 114, 116, 118, 119 (3×), 120, 121, 126, 127, 129, 130, 171 % of control"
same,T/C,[4],"88, 92 (2×), 94, 97 (2×), 99, 100 (4×), 101 (4×), 102, 103 (2×), 105 (2×), 106 (2×), 107 (2×), 109, 111 (2×), 112, 116, 117, 120 (2×), 138 % of control"
same,survivor count,[4],3 of 3
same,T/C,[5],"89, 91, 100 (4×), 101 (3×), 102 (2×), 103 (3×), 104 (2×), 105 (3×), 106 (4×), 107 (2×), 108, 109, 110 (3×), 111, 114, 121, 125, 135 % of control"
same,survivor count,[5],3 of 3
same,T/C,"dose: 200.0 mg/kg/injection, schedule: Q01DX001 (ip), vehicle: Klucel (hydroxypropylcellulose) (HPC)","91, 96, 100, 101, 102, 103, 105, 106 (3×), 107 (3×), 108 (5×), 109 (3×), 111, 112 (3×), 114, 114 [5 of 6 alive], 120 % of control"
same,T/C,[6],"97, 105, 107 (2×), 108 (3×), 109, 110 (2×), 111 (3×), 112 (2×), 114, 115 (3×), 116, 117, 121, 123, 124, 125, 126 (4×), 128, 131, 134, 135, 138 % of control"
same,survivor count,[6],3 of 3
same,T/C,"dose: 200.0 mg/kg/injection, schedule: Q01DX009 (ip), vehicle: Klucel (hydroxypropylcellulose) (HPC)","90, 92, 96, 102, 104, 105 [2 of 3 alive], 106 (2×), 109, 111 (2×), 112, 113, 114, 115, 116, 117 (2×), 118, 120 (2×), 121, 122 (2×), 123 (2×), 126, 128, 133, 134 [5 of 6 alive], 137 (3×), 142, 144, 146 % of control"
same,T/C,"dose: 200.0 mg/kg/injection, schedule: Q04DX002 (ip), vehicle: Klucel (hydroxypropylcellulose) (HPC)","88, 89, 92, 95, 97, 98, 100 (3×), 101, 101 [5 of 6 alive], 102, 103 (3×), 105, 106 (3×), 107 (2×), 108 (2×), 109, 110 (2×), 111 [5 of 6 alive], 112, 115, 116, 117, 120 (2×), 121 % of control"
same,T/C,[7],"91, 92, 95, 96 (2×), 99 (2×), 100, 101, 102 (3×), 103, 104 (2×), 105, 106 (2×), 107 (3×), 108, 109 (2×), 110 (2×), 111 (2×), 112 (2×), 113, 115 (2×), 118, 130 % of control"
same,survivor count,[7],3 of 3
same,T/C,"dose: 400.0 mg/kg/injection, schedule: Q01DX001 (ip), vehicle: Klucel (hydroxypropylcellulose) (HPC)","89, 93, 94, 95, 97 [5 of 6 alive], 100 (2×), 102, 103, 104, 105 (2×), 106 (2×), 108 [4 of 6 alive], 109 (3×), 110, 111 (3×), 112 (3×), 116 [5 of 6 alive], 120, 127 % of control"
same,T/C,"dose: 400.0 mg/kg/injection, schedule: Q01DX005 (ip), vehicle: Klucel (hydroxypropylcellulose) (HPC)","96, 103, 106, 109, 110 (2×), 111, 112 (2×), 113, 114 (2×), 116, 118, 120 (2×), 122, 125, 126, 127 (2×), 128, 130, 131, 132, 133, 135, 136 (3×), 138, 140, 141, 153, 170 % of control"
same,T/C,"dose: 400.0 mg/kg/injection, schedule: Q01DX009 (ip), vehicle: Klucel (hydroxypropylcellulose) (HPC)","109, 110, 112, 113, 114 [2 of 3 alive], 115, 115 [2 of 3 alive], 116, 118, 119, 120, 122 (2×), 126, 126 [5 of 6 alive], 127, 128, 131, 133, 134 (2×), 135 [5 of 6 alive], 136, 137, 138, 139, 142, 143, 146, 147, 148 (2×), 153 [5 of 6 alive], 160, 163, 172 % of control"
same,T/C,"dose: 400.0 mg/kg/injection, schedule: Q01DX009 (ip), vehicle: saline",136 % of control
same,T/C,"dose: 400.0 mg/kg/injection, schedule: Q04DX002 (ip), vehicle: Klucel (hydroxypropylcellulose) (HPC)","88, 92 (2×), 95, 97 (2×), 98, 100 (3×), 102 (2×), 103, 105, 106, 107 (3×), 108 (2×), 109 (2×), 110, 111 (2×), 112, 113, 117 (2×), 119, 120 (2×), 123, 128 % of control"
same,T/C,[8],"88, 91, 93, 97, 100 (3×), 101 (2×), 102, 103 (2×), 104, 105 (4×), 107 (2×), 108, 109 (2×), 110 (3×), 111 (4×), 113, 114, 116, 125, 129, 155 % of control"
same,survivor count,[8],3 of 3
